Experimental data from patent CN105367658A.
No constants are given. Whether binding was seen depends on the method and setting. Some results given as binding are weak or reduced against the parent protein; the word gives no strength.

Sequences of proteins named here, by UniProt entry; tags and fusion partners are left off. A change or cut given only in a name is not applied to a line headed by its entry. Residues count along the entry.
UniProt Q9Y336: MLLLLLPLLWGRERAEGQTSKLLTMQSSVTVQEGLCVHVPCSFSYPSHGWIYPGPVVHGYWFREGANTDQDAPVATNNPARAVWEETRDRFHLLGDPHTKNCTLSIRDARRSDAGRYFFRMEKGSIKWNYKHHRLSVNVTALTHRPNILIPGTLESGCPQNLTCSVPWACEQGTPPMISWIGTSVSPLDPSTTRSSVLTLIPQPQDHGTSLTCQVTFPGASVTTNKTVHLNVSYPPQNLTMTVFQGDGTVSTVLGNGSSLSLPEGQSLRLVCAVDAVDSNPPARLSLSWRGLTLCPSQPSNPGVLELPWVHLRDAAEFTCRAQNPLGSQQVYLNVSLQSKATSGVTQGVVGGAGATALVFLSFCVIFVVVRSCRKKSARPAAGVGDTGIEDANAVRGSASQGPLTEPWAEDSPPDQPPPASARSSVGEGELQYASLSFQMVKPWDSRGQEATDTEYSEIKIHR
Siglec-9蛋白 (中性粒细胞): residues 18-463 of Q9Y336
重组人唾液酸结合免疫球蛋白样凝集素-9蛋白: residues 18-348 of Q9Y336

Legend:
Siglec-9蛋白 (中性粒细胞) = Siglec-9蛋白 (中性粒细胞) (UniProt Q9Y336); test: Western blot of neutrophil lysate supernatant, antibody at 2 μg/mL
[1] = biological target: 重组人唾液酸结合免疫球蛋白样凝集素-9蛋白 (human) (UniProt Q9Y336); test: ELISA, recombinant human Siglec-9 coated at 2 μg/mL, antibody diluted from 2 μg/mL in 14 steps

binding (Siglec-9蛋白 (中性粒细胞)): binds
binding [1]: binds
B1: 人源抗唾液酸结合免疫球蛋白样凝集素-9抗体IgG (antibody, V domains shown)
VH: EVQLVESGAEVKKPGASVKVSCKASGYIFTGYYMHWVRQAPGQGLEWMGWINPKSGGTNYAQKFQGRVTMTRDTSISTAYMELSRLRSDDTAVYYCVRDLGATGGDYWGQGTLVTVSS
VL: ELVLTQPPSVSVSPGQTARVTCSGDALPKKYAYWYQQKSGQAPILVIYGDNKRPSGIPERFSGSSSGTMATLTISGAQVEDEADYYCYSIDRSGNRVFGGGTRLTVLQ
